Literature values as cited in US20040126751A1 (priority 2002, published 2004).
Some entries share one result that the patent states for a list of compounds. At least one compound was matched to its structure with a doubt left.

Test system: Parkinson's disease
Settings: applied intravenously, patients with Parkinson's disease; cited from earlier work

Row | SMILES | duration of beneficial effect
1 | NC(=O)C1=CN(C2OC(COP(=O)([O-])OP(=O)([O-])OCC3OC(n4cnc5c(N)ncnc54)C(O)C3O)C(O)C2O)C=CC1.[Na+].[Na+] (stereo not drawn) [NADH, β-nicotinamide adenine dinucleotide, reduced form, disodium salt] | at least 24 hours
2 | NC(=O)C1=CN([C@@H]2O[C@H](COP(=O)(O)OP(=O)(O)OC[C@H]3O[C@@H](n4cnc5c(N)ncnc54)[C@H](OP(=O)(O)O)[C@@H]3O)[C@@H](O)[C@H]2O)C=CC1 [NADPH, nicotinamide-adenine-phosphate-dinucleotide in its reduced form] | at least 24 hours
